Measurements taken from patent US6342368B1, “WD-40-derived peptides and uses thereof” (The Board of Trustees of the Leland Stanford Junior …, priority 1994, dated 2002).
These are yes or no findings as the source states them, for the method shown. Some entries that bind do so weakly or less than the wild type.

Sequences of proteins named here, by UniProt entry; tags and fusion partners are left off. Residues count along the entry.
UniProt P68403, residues 2-671: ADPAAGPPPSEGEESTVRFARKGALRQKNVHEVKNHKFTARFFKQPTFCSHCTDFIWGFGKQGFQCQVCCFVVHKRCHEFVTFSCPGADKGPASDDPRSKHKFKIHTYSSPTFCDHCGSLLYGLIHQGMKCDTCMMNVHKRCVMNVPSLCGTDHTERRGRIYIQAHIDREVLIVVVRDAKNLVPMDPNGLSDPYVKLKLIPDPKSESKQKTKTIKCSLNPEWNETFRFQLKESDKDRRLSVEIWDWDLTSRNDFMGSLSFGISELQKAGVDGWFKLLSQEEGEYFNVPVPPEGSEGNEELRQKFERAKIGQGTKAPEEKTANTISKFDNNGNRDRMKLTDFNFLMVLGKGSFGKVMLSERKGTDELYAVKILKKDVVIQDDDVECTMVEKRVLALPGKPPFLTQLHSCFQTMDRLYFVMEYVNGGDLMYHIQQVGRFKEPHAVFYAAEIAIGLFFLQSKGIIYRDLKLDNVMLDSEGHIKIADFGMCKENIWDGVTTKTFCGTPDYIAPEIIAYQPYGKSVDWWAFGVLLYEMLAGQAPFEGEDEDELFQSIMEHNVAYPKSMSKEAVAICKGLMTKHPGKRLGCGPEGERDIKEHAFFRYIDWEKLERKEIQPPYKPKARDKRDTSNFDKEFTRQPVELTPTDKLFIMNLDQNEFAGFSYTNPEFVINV

Tests used:
[1] = biological target: βPKC (rat brain protein kinase C, β isozyme) (rat) (UniProt P68403); assay: slot-blot PKC overlay of immobilized peptide (FIG. 4)
[2] = biological target: βPKC (rat brain protein kinase C, β isozyme) (rat) (UniProt P68403); assay: slot-blot PKC overlay of immobilized peptide
[3] = biological target: βPKC (rat brain protein kinase C, β isozyme) (rat) (UniProt P68403); assay: slot-blot PKC overlay of immobilized peptide, 5 nM rat brain PKC with and without PS, DG and calcium, anti-βPKC detection

- binding [1]: binds
- binding [2]: binds
- binding [3]: binds
Binder: DIINALCF [peptide rVI]
